{"source": "the supplement of paper PMC12889115", "system": "Salmonella enterica serovar Typhimurium SL1344", "assay": "bacterial growth OD600 after 18 h with compound and polymyxin B; higher = more bacterial growth (less inhibition)", "details": "50 µM, Mueller-Hinton broth", "note": "Some of the results follow. These are raw signals, not scaled to a control.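 Primary screen: polymyxin B was added at a level permeabilizing Salmonella outer membranes while sparing inner membranes. DMSO wells, both with and without polymyxin B, established maximum growth. Plate-to-plate variation meant each plate was ranked on its own, and the lowest-OD600 compounds were selected as hits.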"}
{"smiles": "CCCc1cc(CNC(=O)c2ccc(N3CCCC(CO)C3)nc2)on1", "note": "(centres undefined)", "values": [{"measurement": "bacterial growth OD600", "setting": "polymyxin B 0.75 µg/mL", "result": 0.785}]}
{"smiles": "CSCCNC(=O)C1CC(Cc2ccc(F)cc2)=NO1", "note": "(centres undefined)", "values": [{"measurement": "bacterial growth OD600", "setting": "polymyxin B 0.75 µg/mL", "result": 0.812}]}
{"smiles": "CC(C)c1cc(C(=O)N2CCc3onc(-c4ccccc4F)c3C2)on1", "values": [{"measurement": "bacterial growth OD600", "setting": "polymyxin B 0.75 µg/mL", "result": 0.616}]}
{"smiles": "C=CCOc1cccc(C(=O)N2CCc3c(cnc(C)c3CNC(=O)/C=C/c3cccs3)C2)c1", "values": [{"measurement": "bacterial growth OD600", "setting": "polymyxin B 0.75 µg/mL", "result": 0.681}]}
{"smiles": "COCC1CCN(C(=O)CC2(c3ccccc3Cl)CC(=O)N(C3CCCC3)C2=O)CC1", "note": "(centres undefined)", "values": [{"measurement": "bacterial growth OD600", "setting": "polymyxin B 0.75 µg/mL", "result": 0.53}]}
{"smiles": "O=C(CCC1CCN(C(=O)C2=CCCCC2)CC1)N1CCN(c2ccccc2)CC1", "values": [{"measurement": "bacterial growth OD600", "setting": "polymyxin B 1 µg/mL", "result": 0.89}]}
{"smiles": "CCOC(=O)C1(Cc2cccc(OC)c2)CCN(Cc2cccn2-c2ccccn2)CC1", "values": [{"measurement": "bacterial growth OD600", "setting": "polymyxin B 1 µg/mL", "result": 0.78}]}
{"smiles": "Cc1ccc2c(c1)CN(CC(=O)NCc1cn3c(C)cccc3n1)CC(c1ccsc1)O2", "note": "(centres undefined)", "values": [{"measurement": "bacterial growth OD600", "setting": "polymyxin B 0.75 µg/mL", "result": -0.003}]}
{"smiles": "COCCn1cnc2cc(NC(=O)C3CCCCC3)cc(C(=O)N3CCCC(c4ccccc4)C3)c21", "note": "(centres undefined)", "values": [{"measurement": "bacterial growth OD600", "setting": "polymyxin B 0.75 µg/mL", "result": 0.796}]}
